“And” between values parts separate entries of the source, which are not always exact repeats. Equal values may be shown once. Read-outs that look alike come from different tables or passages of the source. Further values from the same series stand in other lists.
Test system: ATCC strain 43300 Staphylococcus aureus
Settings: for survival (cfu/ml): triplicate platings
[1] = 12 μg/ml oxacillin + MSM (% in label), 120 hours, listed as 8% MSM
[2] = 12 μg/ml oxacillin + MSM (% in label), 120 hours, listed as 9% MSM
[3] = 12 μg/ml oxacillin + MSM (% in label), 120 hours, listed as 10% MSM
[4] = 12 μg/ml oxacillin + MSM (% in label), 120 hours, listed as 11% MSM
[5] = 12 μg/ml oxacillin + MSM (% in label), 120 hours, listed as 12% MSM
[6] = 12 μg/ml oxacillin + MSM (% in label), 120 hours, listed as 13% MSM
[7] = 12 μg/ml oxacillin + MSM (% in label), 120 hours, listed as 14% MSM
[8] = 12 μg/ml oxacillin + MSM (% in label), 120 hours, listed as 15% MSM
[9] = 12 μg/ml oxacillin + MSM (% in label), 120 hours, listed as 16% MSM

CS(C)(=O)=O [MSM, Methylsulfonylmethane]
survival, Average Log [1]: 5.5 Log | survival, Average Log [2]: 5.5 Log | survival, Average Log [3]: 5.5 Log | survival, Average Log [4]: 5.5 Log | survival, Average Log [5]: 5.5 Log | survival, Average Log [6]: 3.8 Log | survival, Average Log [7]: 2.0 Log | survival, Average Log [8]: 2.0 Log | survival, Average Log [9]: 1.5 Log | survival (cfu/ml) (12 μg/ml oxacillin + MSM (% in label), 120 hours, listed as 5% MSM): >3.3 × 10^5 cfu/ml | survival (cfu/ml) (12 μg/ml oxacillin + MSM (% in label), 120 hours, listed as 6% MSM): >3.3 × 10^5 cfu/ml | survival (cfu/ml) (12 μg/ml oxacillin + MSM (% in label), 120 hours, listed as 7% MSM): >3.3 × 10^5 cfu/ml | survival (cfu/ml) [1]: >3.3 × 10^5 cfu/ml | survival (cfu/ml) [2]: >3.3 × 10^5 cfu/ml | survival (cfu/ml) [3]: >3.3 × 10^5 cfu/ml | survival (cfu/ml) [4]: >3.3 × 10^5 cfu/ml | survival (cfu/ml) [5]: >3.3 × 10^5 cfu/ml | survival (cfu/ml) [6]: 6.2 × 10^3 cfu/ml and 6.7 × 10^3 cfu/ml | survival (cfu/ml) [7]: 1.1 × 10^2 cfu/ml and 1.2 × 10^2 cfu/ml | survival (cfu/ml) [8]: 1.1 × 10^2 cfu/ml and 1.3 × 10^2 cfu/ml and 1.2 × 10^2 cfu/ml | survival (cfu/ml) [9]: 3.0 × 10^1 cfu/ml and 2.0 × 10^1 cfu/ml | survival (cfu/ml) (30 μg/ml oxacillin + MSM (% in label), 24 hours, listed as 5% MSM): 3.1 × 10^2 cfu/ml and 3.3 × 10^2 cfu/ml | survival (cfu/ml) (30 μg/ml oxacillin + MSM (% in label), 24 hours, listed as 6% MSM): 2.9 × 10^2 cfu/ml | survival (cfu/ml) (30 μg/ml oxacillin + MSM (% in label), 24 hours, listed as 7% MSM): 9.7 × 10^2 cfu/ml and 9.6 × 10^2 cfu/ml and 9.2 × 10^2 cfu/ml | survival (cfu/ml) (30 μg/ml oxacillin + MSM (% in label), 24 hours, listed as 8% MSM): 1.18 × 10^3 cfu/ml and 1.16 × 10^3 cfu/ml | survival (cfu/ml) (30 μg/ml oxacillin + MSM (% in label), 24 hours, listed as 9% MSM): 1.06 × 10^3 cfu/ml and 1.05 × 10^3 cfu/ml and 1.02 × 10^3 cfu/ml | survival (cfu/ml) (30 μg/ml oxacillin + MSM (% in label), 24 hours, listed as 10% MSM): 2.2 × 10^3 cfu/ml and 2.0 × 10^3 cfu/ml | survival (cfu/ml) (30 μg/ml oxacillin + MSM (% in label), 24 hours, listed as 11% MSM): 3.9 × 10^3 cfu/ml and 3.7 × 10^3 cfu/ml | survival (cfu/ml) (30 μg/ml oxacillin + MSM (% in label), 24 hours, listed as 12% MSM): 3.9 × 10^3 cfu/ml | survival (cfu/ml) (30 μg/ml oxacillin + MSM (% in label), 24 hours, listed as 13% MSM): 4.4 × 10^3 cfu/ml and 4.1 × 10^3 cfu/ml and 4.2 × 10^3 cfu/ml | survival (cfu/ml) (30 μg/ml oxacillin + MSM (% in label), 24 hours, listed as 14% MSM): 6.1 × 10^3 cfu/ml and 6.0 × 10^3 cfu/ml | survival (cfu/ml) (30 μg/ml oxacillin + MSM (% in label), 24 hours, listed as 15% MSM): 8.7 × 10^3 cfu/ml and 8.9 × 10^3 cfu/ml and 8.8 × 10^3 cfu/ml | survival (cfu/ml) (30 μg/ml oxacillin + MSM (% in label), 24 hours, listed as 16% MSM): 8.3 × 10^3 cfu/ml and 8.0 × 10^3 cfu/ml | survival (cfu/ml) (30 μg/ml oxacillin + MSM (% in label), 48 hours, listed as 5% MSM): 5.8 × 10^3 cfu/ml and 6.0 × 10^3 cfu/ml and 5.9 × 10^3 cfu/ml | survival (cfu/ml) (30 μg/ml oxacillin + MSM (% in label), 48 hours, listed as 6% MSM): 5.5 × 10^3 cfu/ml and 5.9 × 10^3 cfu/ml | survival (cfu/ml) (30 μg/ml oxacillin + MSM (% in label), 48 hours, listed as 7% MSM): 2.0 × 10^2 cfu/ml and 2.1 × 10^2 cfu/ml and 2.2 × 10^2 cfu/ml | survival (cfu/ml) (30 μg/ml oxacillin + MSM (% in label), 48 hours, listed as 8% MSM): 1.23 × 10^3 cfu/ml and 1.24 × 10^3 cfu/ml and 1.20 × 10^3 cfu/ml | survival (cfu/ml) (30 μg/ml oxacillin + MSM (% in label), 48 hours, listed as 9% MSM): 2.8 × 10^2 cfu/ml and 2.6 × 10^2 cfu/ml and 2.2 × 10^2 cfu/ml | survival (cfu/ml) (30 μg/ml oxacillin + MSM (% in label), 48 hours, listed as 10% MSM): 4.3 × 10^2 cfu/ml and 4.0 × 10^2 cfu/ml | survival (cfu/ml) (30 μg/ml oxacillin + MSM (% in label), 48 hours, listed as 11% MSM): 2.5 × 10^2 cfu/ml and 2.7 × 10^2 cfu/ml and 2.8 × 10^2 cfu/ml | survival (cfu/ml) (30 μg/ml oxacillin + MSM (% in label), 48 hours, listed as 12% MSM): 3.9 × 10^2 cfu/ml and 3.6 × 10^2 cfu/ml and 4.0 × 10^2 cfu/ml | survival (cfu/ml) (30 μg/ml oxacillin + MSM (% in label), 48 hours, listed as 13% MSM): 3.0 × 10^2 cfu/ml and 3.1 × 10^2 cfu/ml | survival (cfu/ml) (30 μg/ml oxacillin + MSM (% in label), 48 hours, listed as 14% MSM): 3.6 × 10^2 cfu/ml and 3.2 × 10^2 cfu/ml and 3.5 × 10^2 cfu/ml | survival (cfu/ml) (30 μg/ml oxacillin + MSM (% in label), 48 hours, listed as 15% MSM): 6.2 × 10^2 cfu/ml and 6.4 × 10^2 cfu/ml | survival (cfu/ml) (30 μg/ml oxacillin + MSM (% in label), 48 hours, listed as 16% MSM): 4.6 × 10^2 cfu/ml and 4.0 × 10^2 cfu/ml and 4.1 × 10^2 cfu/ml | survival (cfu/ml) (30 μg/ml oxacillin + MSM (% in label), 72 hours, listed as 5% MSM): >3.3 × 10^5 cfu/ml | survival (cfu/ml) (30 μg/ml oxacillin + MSM (% in label), 72 hours, listed as 6% MSM): >3.3 × 10^5 cfu/ml | survival (cfu/ml) (30 μg/ml oxacillin + MSM (% in label), 72 hours, listed as 7% MSM): 3.6 × 10^4 cfu/ml and 3.2 × 10^4 cfu/ml | survival (cfu/ml) (30 μg/ml oxacillin + MSM (% in label), 72 hours, listed as 8% MSM): >3.3 × 10^5 cfu/ml | survival (cfu/ml) (30 μg/ml oxacillin + MSM (% in label), 72 hours, listed as 9% MSM): 8.8 × 10^2 cfu/ml and 8.1 × 10^2 cfu/ml and 8.5 × 10^2 cfu/ml | survival (cfu/ml) (30 μg/ml oxacillin + MSM (% in label), 72 hours, listed as 10% MSM): 8.9 × 10^3 cfu/ml and 9.0 × 10^3 cfu/ml and 8.5 × 10^3 cfu/ml | survival (cfu/ml) (30 μg/ml oxacillin + MSM (% in label), 72 hours, listed as 11% MSM): 1.2 × 10^3 cfu/ml and 1.7 × 10^3 cfu/ml and 1.5 × 10^3 cfu/ml | survival (cfu/ml) (30 μg/ml oxacillin + MSM (% in label), 72 hours, listed as 12% MSM): 4.8 × 10^2 cfu/ml and 3.9 × 10^2 cfu/ml and 4.9 × 10^2 cfu/ml | survival (cfu/ml) (30 μg/ml oxacillin + MSM (% in label), 72 hours, listed as 14% MSM): 1.4 × 10^2 cfu/ml and 1.7 × 10^2 cfu/ml and 1.8 × 10^2 cfu/ml | survival (cfu/ml) (30 μg/ml oxacillin + MSM (% in label), 72 hours, listed as 15% MSM): 2.3 × 10^2 cfu/ml and 2.2 × 10^2 cfu/ml and 2.8 × 10^2 cfu/ml | survival (cfu/ml) (30 μg/ml oxacillin + MSM (% in label), 72 hours, listed as 16% MSM): 9 × 10^1 cfu/ml and 8.0 × 10^1 cfu/ml | survival, Average Log (30 μg/ml oxacillin + MSM (% in label), 96 hours, listed as 5% MSM): 5.5 Log | survival, Average Log (30 μg/ml oxacillin + MSM (% in label), 96 hours, listed as 6% MSM): 5.5 Log | survival, Average Log (30 μg/ml oxacillin + MSM (% in label), 96 hours, listed as 7% MSM): 5.5 Log | survival, Average Log (30 μg/ml oxacillin + MSM (% in label), 96 hours, listed as 8% MSM): 5.5 Log | survival, Average Log (30 μg/ml oxacillin + MSM (% in label), 96 hours, listed as 9% MSM): 4.0 Log | survival, Average Log (30 μg/ml oxacillin + MSM (% in label), 96 hours, listed as 10% MSM): 5.5 Log | survival, Average Log (30 μg/ml oxacillin + MSM (% in label), 96 hours, listed as 11% MSM): 5.5 Log
